Laboratory results as given in PMC12174339.
Results are given in words; binding and its absence hold for the method and conditions named. Binding seen in cells or lysates may run through a third protein. These calls come from enrichment with a bait or labelling near it, and not all partners need be listed. For part of these data: A no says only that the protein was not detected with the bait.

Protein sequences, listed by entry. Tags and fused reporters are not part of them. Lines headed by an entry give the natural chain unless they say otherwise; changes in a name come on top. Residues count along the entry.
UniProt Q9UKK3: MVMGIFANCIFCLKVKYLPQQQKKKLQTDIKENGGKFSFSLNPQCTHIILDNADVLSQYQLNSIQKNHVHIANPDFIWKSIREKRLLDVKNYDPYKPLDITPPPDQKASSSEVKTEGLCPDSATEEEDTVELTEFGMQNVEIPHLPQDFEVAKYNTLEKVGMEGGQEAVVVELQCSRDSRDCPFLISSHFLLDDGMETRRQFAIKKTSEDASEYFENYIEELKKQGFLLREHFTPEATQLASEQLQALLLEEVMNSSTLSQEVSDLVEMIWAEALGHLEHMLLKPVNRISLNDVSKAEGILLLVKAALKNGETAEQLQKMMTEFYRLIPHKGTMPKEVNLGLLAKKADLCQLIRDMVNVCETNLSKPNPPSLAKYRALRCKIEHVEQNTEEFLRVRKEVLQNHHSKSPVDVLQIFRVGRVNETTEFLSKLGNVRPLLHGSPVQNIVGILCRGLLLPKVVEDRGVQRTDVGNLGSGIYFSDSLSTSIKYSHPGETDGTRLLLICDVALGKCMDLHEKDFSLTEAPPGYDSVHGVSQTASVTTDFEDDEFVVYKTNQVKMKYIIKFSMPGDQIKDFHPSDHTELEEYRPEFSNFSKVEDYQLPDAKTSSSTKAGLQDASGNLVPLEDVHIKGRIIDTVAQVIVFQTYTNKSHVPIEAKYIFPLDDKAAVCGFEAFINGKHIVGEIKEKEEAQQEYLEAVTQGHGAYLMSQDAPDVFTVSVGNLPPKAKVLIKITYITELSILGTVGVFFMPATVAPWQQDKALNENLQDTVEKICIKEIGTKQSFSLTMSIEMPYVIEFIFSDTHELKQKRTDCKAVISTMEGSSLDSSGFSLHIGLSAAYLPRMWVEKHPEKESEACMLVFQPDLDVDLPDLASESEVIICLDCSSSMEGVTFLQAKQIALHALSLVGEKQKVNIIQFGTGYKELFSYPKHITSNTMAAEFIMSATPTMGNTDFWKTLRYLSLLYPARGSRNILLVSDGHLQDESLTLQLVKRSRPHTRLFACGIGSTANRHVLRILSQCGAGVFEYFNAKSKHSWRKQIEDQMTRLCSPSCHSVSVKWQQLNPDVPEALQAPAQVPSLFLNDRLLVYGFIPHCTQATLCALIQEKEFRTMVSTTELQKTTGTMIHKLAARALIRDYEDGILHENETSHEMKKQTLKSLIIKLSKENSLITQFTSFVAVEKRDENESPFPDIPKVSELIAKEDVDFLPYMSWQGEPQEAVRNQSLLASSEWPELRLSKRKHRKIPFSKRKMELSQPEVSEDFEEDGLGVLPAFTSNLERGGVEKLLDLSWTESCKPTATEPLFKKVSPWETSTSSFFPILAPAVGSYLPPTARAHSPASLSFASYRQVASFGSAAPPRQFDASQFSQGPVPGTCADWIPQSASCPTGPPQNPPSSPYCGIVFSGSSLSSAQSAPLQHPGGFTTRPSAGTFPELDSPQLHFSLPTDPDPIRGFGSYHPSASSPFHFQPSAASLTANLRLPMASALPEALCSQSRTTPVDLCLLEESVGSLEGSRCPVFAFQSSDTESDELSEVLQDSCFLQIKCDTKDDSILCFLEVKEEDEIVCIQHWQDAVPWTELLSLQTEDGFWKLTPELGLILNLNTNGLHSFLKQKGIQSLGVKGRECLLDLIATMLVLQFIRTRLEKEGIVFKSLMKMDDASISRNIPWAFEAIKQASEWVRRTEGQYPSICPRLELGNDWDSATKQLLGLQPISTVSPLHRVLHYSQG
UniProt Q15388: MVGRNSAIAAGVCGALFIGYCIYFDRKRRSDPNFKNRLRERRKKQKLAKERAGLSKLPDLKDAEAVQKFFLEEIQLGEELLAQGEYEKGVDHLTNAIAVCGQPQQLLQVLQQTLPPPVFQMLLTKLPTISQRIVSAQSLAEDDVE
UniProt Q9UBR2: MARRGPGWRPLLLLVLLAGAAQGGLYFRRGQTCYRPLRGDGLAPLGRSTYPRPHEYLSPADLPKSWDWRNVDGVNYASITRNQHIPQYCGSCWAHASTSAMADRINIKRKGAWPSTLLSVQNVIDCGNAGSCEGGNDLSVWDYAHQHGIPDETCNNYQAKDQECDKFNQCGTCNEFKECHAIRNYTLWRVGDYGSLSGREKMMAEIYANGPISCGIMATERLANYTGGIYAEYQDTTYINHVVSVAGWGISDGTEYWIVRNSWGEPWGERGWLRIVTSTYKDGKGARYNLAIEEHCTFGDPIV
UniProt P40939, residues 37-763: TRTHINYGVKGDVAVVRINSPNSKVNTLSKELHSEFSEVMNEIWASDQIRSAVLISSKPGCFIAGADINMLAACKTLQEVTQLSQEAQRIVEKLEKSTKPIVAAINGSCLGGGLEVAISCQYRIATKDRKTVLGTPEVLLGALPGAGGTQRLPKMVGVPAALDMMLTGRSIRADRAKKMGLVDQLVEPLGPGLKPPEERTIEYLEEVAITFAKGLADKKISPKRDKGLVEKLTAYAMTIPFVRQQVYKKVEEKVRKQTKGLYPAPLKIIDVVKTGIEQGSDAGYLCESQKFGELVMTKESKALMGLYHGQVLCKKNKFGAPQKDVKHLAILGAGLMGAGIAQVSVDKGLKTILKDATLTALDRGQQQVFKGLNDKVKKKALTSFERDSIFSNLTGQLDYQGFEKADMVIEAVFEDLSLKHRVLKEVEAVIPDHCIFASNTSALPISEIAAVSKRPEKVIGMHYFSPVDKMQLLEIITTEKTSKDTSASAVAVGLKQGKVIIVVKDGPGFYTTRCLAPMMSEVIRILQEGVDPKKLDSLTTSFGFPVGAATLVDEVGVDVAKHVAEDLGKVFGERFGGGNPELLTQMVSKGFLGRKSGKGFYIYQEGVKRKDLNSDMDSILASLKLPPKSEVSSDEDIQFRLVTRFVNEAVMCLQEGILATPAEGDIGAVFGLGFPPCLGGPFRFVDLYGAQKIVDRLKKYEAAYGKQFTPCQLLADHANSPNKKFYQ

B1: CALCOCO1 (protein, UniProt Q9P1Z2 1-691)
chain: MEESPLSRAPSRGGVNFLNVARTYIPNTKVECHYTLPPGTMPSASDWIGIFKVEAACVRDYHTFVWSSVPESTTDGSPIHTSVQFQASYLPKPGAQLYQFRYVNRQGQVCGQSPPFQFREPRPMDELVTLEEADGGSDILLVVPKATVLQNQLDESQQERNDLMQLKLQLEGQVTELRSRVQELERALATARQEHTELMEQYKGISRSHGEITEERDILSRQQGDHVARILELEDDIQTISEKVLTKEVELDRLRDTVKALTREQEKLLGQLKEVQADKEQSEAELQVAQQENHHLNLDLKEAKSWQEEQSAQAQRLKDKVAQMKDTLGQAQQRVAELEPLKEQLRGAQELAASSQQKATLLGEELASAAAARDRTIAELHRSRLEVAEVNGRLAELGLHLKEEKCQWSKERAGLLQSVEAEKDKILKLSAEILRLEKAVQEERTQNQVFKTELAREKDSSLVQLSESKRELTELRSALRVLQKEKEQLQEEKQELLEYMRKLEARLEKVADEKWNEDATTEDEEAAVGLSCPAALTDSEDESPEDMRLPPYGLCERGDPGSSPAGPREASPLVVISQPAPISPHLSGPAEDSSSDSEAEDEKSVLMAAVQSGGEEANLLLPELGSAFYDMASGFTVGTLSETSTGGPATPTWKECPICKERFPAESDKDALEDHMDGHFFFSTQDPFTFE
B2: CALCOCO2 (protein, UniProt Q13137 1-446)
chain: MEETIKDPPTSAVLLDHCHFSQVIFNSVEKFYIPGGDVTCHYTFTQHFIPRRKDWIGIFRVGWKTTREYYTFMWVTLPIDLNNKSAKQQEVQFKAYYLPKDDEYYQFCYVDEDGVVRGASIPFQFRPENEEDILVVTTQGEVEEIEQHNKELCKENQELKDSCISLQKQNSDMQAELQKKQEELETLQSINKKLELKVKEQKDYWETELLQLKEQNQKMSSENEKMGIRVDQLQAQLSTQEKEMEKLVQGDQDKTEQLEQLKKENDHLFLSLTEQRKDQKKLEQTVEQMKQNETTAMKKQQELMDENFDLSKRLSENEIICNALQRQKERLEGENDLLKRENSRLLSYMGLDFNSLPYQVPTSDEGGARQNPGLAYGNPYSGIQESSSPSPLSIKKCPICKADDICDHTLEQQQMQPLCFNCPICDKIFPATEKQIFEDHVFCHSL

biological target: sequestosome 1 (SQSTM1/p62), endogenous (human (endogenous in HCT116)) (UniProt Q13501); test: affinity purification with mass spectrometry; endogenous p62 immunoprecipitated with a p62 antibody (Santa Cruz sc-28359) and Protein G magnetic beads from 1 mg whole-cell lysate of HCT116 WT, 13/3 and 5/4 (and of WT without p62 overexpression), untreated/DMSO or BafA1 (100 nM, 6 h); lysis in 150 mM NaCl, 50 mM Tris-HCl pH 7.5, 5% glycerol, 1% IGPAL-CA-630, 1 mM MgCl2; normal mouse IgG as control; on-bead tryptic digest, label-free MS, n = 4

| Molecule | binding |
| --- | --- |
| PARP4 (from UniProt Q9UKK3 1-1724) | binds |
| TOMM20 (translocase of outer mitochondrial membrane 20) (from UniProt Q15388 1-145) | no binding |
| lysosomal protease CTSZ (from UniProt Q9UBR2) | binds |
| mitochondrial hydroxyacyl-CoA dehydrogenase trifunctional multienzyme complex subunit HADHA (from UniProt P40939 37-763) | binds |

biological target: myc-APEX2-p62 (UniProt Q13501); test: proximity labelling; autophagosome content profiling: myc-APEX2-p62 in HCT116 WT, 13/3, 3/3, 5/4; biotin-phenol 30 min, 1 mM H2O2 1 min; cleared lysates treated with proteinase K, membrane-protected biotinylated proteins pulled down on streptavidin agarose, MS; BafA1 versus DMSO

| Molecule | binding |
| --- | --- |
| B1 | binds |
| B2 | binds |
